Results reported in the supplement of paper PMC7238544.
Where a name gives a salt, the structure may show the parent alone. ± gives the standard deviation of the averaged measurements. Some of the results follow. The data scatter; read single values as rough.

What was measured:
hAMSC donor 1 [1] = test: Hoechst total cell count ratio vs vehicle control; higher = more cells (less toxicity)
hAMSC donor 2 [2] = test: as above
hAMSC donor 1 [3] = test: transgenic luciferase activity (RLU/mg protein) fold change vs vehicle control (ratio); higher = more transgene expression
hAMSC donor 2 [4] = test: as above
hAMSC donor 1 [5] = test: transfection efficiency (EGFP+ cells / Hoechst count) fold change vs vehicle control (ratio); hAMSC are human adipose-derived mesenchymal stem cells given an EGFP-luciferase plasmid by lipofection; higher = enhanced transfection
hAMSC donor 2 [6] = test: as above
[7] = priming compound concentration 0.2 µM
[8] = priming compound concentration 1.7 µM
[9] = priming compound concentration 13 µM

Compound	Hoechst total cell count ratio (hAMSC donor 1 [1]; [7])	Hoechst total cell count ratio (hAMSC donor 1 [1]; [8])	Hoechst total cell count ratio (hAMSC donor 1 [1]; [9])	Hoechst total cell count ratio (hAMSC donor 2 [2]; [7])	Hoechst total cell count ratio (hAMSC donor 2 [2]; [8])	Hoechst total cell count ratio (hAMSC donor 2 [2]; [9])	transgenic luciferase activity (hAMSC donor 1 [3]; [7])	transgenic luciferase activity (hAMSC donor 2 [4]; [8])	transfection efficiency (hAMSC donor 1 [5]; [7])	transfection efficiency (hAMSC donor 1 [5]; [8])	transfection efficiency (hAMSC donor 1 [5]; [9])	transfection efficiency (hAMSC donor 2 [6]; [7])	transfection efficiency (hAMSC donor 2 [6]; [8])	transfection efficiency (hAMSC donor 2 [6]; [9])	transgenic luciferase activity (hAMSC donor 1 [3]; [9])	transgenic luciferase activity (hAMSC donor 2 [4]; [7])	transgenic luciferase activity (hAMSC donor 1 [3]; [8])
O=C(O)CCc1nc(-c2ccccc2)c(-c2ccccc2)o1 [Oxaprozin]	1.12 ± 0.1	1.29 ± 0.19	1.15 ± 0.075	0.884 ± 0.11	1.44 ± 0.19	0.811 ± 0.3	1.17 ± 0.88	0.443 ± 0.09	1.24 ± 0.48	0.952 ± 0.17	1.25 ± 0.32	1.32 ± 0.23	0.771 ± 0.27	1.15 ± 0.46			
CC(=O)NC[C@H]1CN(c2ccc(N3CCOCC3)c(F)c2)C(=O)O1 [Linezolid]	1.27 ± 0.2	1.25 ± 0.099	1.18 ± 0.054	1.64 ± 0.25	1.43 ± 0.12	1.29 ± 0.044			1.13 ± 0.16	1.26 ± 0.32	1.83 ± 0.7	1.05 ± 0.1	1.49 ± 0.44	1.37 ± 0.18	3.79 ± 0.55		
CCCc1nc(C(C)(C)O)c(C(=O)OCc2oc(=O)oc2C)n1Cc1ccc(-c2ccccc2-c2nnn[nH]2)cc1 [Olmesartan medoxomil]	1.36 ± 0.043	1.45 ± 0.098	1.44 ± 0.098	1.12 ± 0.31	1.27 ± 0.046	1.49 ± 0.22	1.4 ± 0.29		0.715 ± 0.08	0.838 ± 0.44	1.86 ± 0.49	1.14 ± 0.32	0.853 ± 0.076	0.671 ± 0.11		1.01 ± 0.23	
C[C@](N)(Cc1ccc(O)cc1)C(=O)O [alpha-Methyl-L-tyrosine]	1.15 ± 0.23	1.36 ± 0.26	1.34 ± 0.16	1.02 ± 0.053	1.35 ± 0.06	1.38 ± 0.092	2.11 ± 0.31		0.679 ± 0.091	0.855 ± 0.25	1.59 ± 0.43	1.46 ± 0.29	0.901 ± 0.049	0.787 ± 0.12		0.539 ± 0.17	
C=C1/C(=C\C=C2/CCC[C@]3(C)[C@@H]([C@H](C)/C=C/[C@@H](O)C4CC4)CC[C@@H]23)C[C@@H](O)C[C@@H]1O [Calcipotriol]	1.52 ± 0.17	1.51 ± 0.16	1.41 ± 0.018	1.48 ± 0.14	1.19 ± 0.08	1.12 ± 0.29			0.959 ± 0.42	0.847 ± 0.17	0.899 ± 0.15	0.965 ± 0.087	1.27 ± 0.23	1.34 ± 0.35	2.02 ± 0.33		
CC1(C)C[C@@H]1C(=O)N/C(=C\CCCCSC[C@H](N)C(=O)O)C(=O)O [Cilastatin sodium]	1.26 ± 0.086	1.33 ± 0.035	1.16 ± 0.074	0.922 ± 0.23	1.01 ± 0.067	0.83 ± 0.13	1.12 ± 0.048		0.86 ± 0.26	0.914 ± 0.24	0.99 ± 0.23	0.922 ± 0.085	1.02 ± 0.17	1.16 ± 0.073			
C[C@H]1[C@H](OC(=O)CCC(=O)O)O[C@@H]2O[C@@]3(C)CC[C@H]4[C@H](C)CC[C@@H]1[C@@]24OO3 [Artesunate]	1.4 ± 0.14	1.2 ± 0.17	1.36 ± 0.095	1.21 ± 0.21	1.47 ± 0.026	1.37 ± 0.079	0.724 ± 0.33		0.569 ± 0.16	1.21 ± 0.52	0.842 ± 0.41	1.13 ± 0.081	0.624 ± 0.021	0.71 ± 0.13		0.803 ± 0.22	
C[C@H]1COc2c(C3(N)CC3)c(F)cc3c(=O)c(C(=O)O)cn1c23 [Pazufloxacin]	1.23 ± 0.17	1.19 ± 0.089	1.18 ± 0.12	1.09 ± 0.086	0.957 ± 0.067	1.08 ± 0.32			0.972 ± 0.15	1.2 ± 0.21	0.895 ± 0.096	1.24 ± 0.25	1.69 ± 0.15	1.09 ± 0.16	0.518 ± 0.042		
Cc1ccsc1C(=CCCN1CCC[C@@H](C(=O)O)C1)c1sccc1C [Tiagabine hydrochloride]	1.27 ± 0.11	1.12 ± 0.098	1.19 ± 0.18	1.66 ± 0.14	1.06 ± 0.19	1.4 ± 0.028			1.02 ± 0.17	1.01 ± 0.17	0.877 ± 0.45	0.931 ± 0.021	1.23 ± 0.15	0.817 ± 0.1	0.677 ± 0.29		
CN1CC(=O)N2[C@H](c3ccc4c(c3)OCO4)c3[nH]c4ccccc4c3C[C@@H]2C1=O [Tadalafil]	1.33 ± 0.12	1.31 ± 0.17	1.53 ± 0.14	1.02 ± 0.079	1.28 ± 0.11	1.34 ± 0.091	0.582 ± 0.13		0.819 ± 0.13	1.17 ± 0.14	1.36 ± 0.31	1.42 ± 0.16	0.768 ± 0.047	1.04 ± 0.22		0.834 ± 0.28	
CC1=C(C/C=C(\C)CCC[C@H](C)CCC[C@H](C)CCCC(C)C)C(=O)c2ccccc2C1=O [Phylloquinone]	1.24 ± 0.12	1.45 ± 0.11	1.31 ± 0.089	1.26 ± 0.27	1.26 ± 0.05	1.37 ± 0.29	2.01 ± 1.2		0.684 ± 0.12	0.956 ± 0.35	1.12 ± 0.14	1.21 ± 0.53	0.781 ± 0.09	0.813 ± 0.041		1.17 ± 0.2	
COc1ccc(CC2c3cc(OC)c(OC)cc3CC[N+]2(C)CCC(=O)OCCCCCOC(=O)CC[N+]2(C)CCc3cc(OC)c(OC)cc3C2Cc2ccc(OC)c(OC)c2)cc1OC (stereo not given) [Atracurium besylate]	1.11 ± 0.14	1.24 ± 0.13	0.881 ± 0.17	1.02 ± 0.38	0.899 ± 0.094	0.589 ± 0.081	0.475 ± 0.2	0.391 ± 0.077	0.878 ± 0.24	0.505 ± 0.15	1.49 ± 0.56	1.33 ± 0.2	1.07 ± 0.079	1.72 ± 0.18			
NS(=O)(=O)c1cc2c(cc1C(F)(F)F)NCNS2(=O)=O [Hydroflumethiazide]	1.62 ± 0.089	1.31 ± 0.11	1.45 ± 0.18	0.755 ± 0.24	1.18 ± 0.064	1.23 ± 0.15			1.23 ± 0.1	1.12 ± 0.32	1.33 ± 0.3	1.49 ± 0.3	1.3 ± 0.057	1.5 ± 0.23			0.951 ± 0.3
CCOc1cc(CC(=O)N[C@@H](CC(C)C)c2ccccc2N2CCCCC2)ccc1C(=O)O [Repaglinide]	1.08 ± 0.12	1.12 ± 0.061	0.981 ± 0.13	1.14 ± 0.062	1.39 ± 0.26	0.76 ± 0.12	1.45 ± 0.65	0.596 ± 0.087	1.43 ± 0.27	1.17 ± 0.026	1.51 ± 0.36	1.12 ± 0.28	1.19 ± 0.19	1.18 ± 0.33			

Some of the entries above, set out differently:
Compound | Hoechst total cell count ratio (hAMSC donor 1 [1]; [7]) | Hoechst total cell count ratio (hAMSC donor 1 [1]; [8]) | Hoechst total cell count ratio (hAMSC donor 1 [1]; [9]) | Hoechst total cell count ratio (hAMSC donor 2 [2]; [7]) | Hoechst total cell count ratio (hAMSC donor 2 [2]; [8]) | Hoechst total cell count ratio (hAMSC donor 2 [2]; [9]) | transgenic luciferase activity (hAMSC donor 1 [3]; [7]) | transgenic luciferase activity (hAMSC donor 2 [4]; [8]) | transfection efficiency (hAMSC donor 1 [5]; [7]) | transfection efficiency (hAMSC donor 1 [5]; [8]) | transfection efficiency (hAMSC donor 1 [5]; [9]) | transfection efficiency (hAMSC donor 2 [6]; [7]) | transfection efficiency (hAMSC donor 2 [6]; [8]) | transfection efficiency (hAMSC donor 2 [6]; [9]) | transgenic luciferase activity (hAMSC donor 1 [3]; [9]) | transgenic luciferase activity (hAMSC donor 2 [4]; [7]) | transgenic luciferase activity (hAMSC donor 1 [3]; [8])
CC1(C)C[C@@H]1C(=O)N/C(=C\CCCCSC[C@H](N)C(=O)O)C(=O)O [Cilastatin sodium] | 1.26 ± 0.086 | 1.33 ± 0.035 | 1.16 ± 0.074 | 0.922 ± 0.23 | 1.01 ± 0.067 | 0.83 ± 0.13 | 1.12 ± 0.048 |  | 0.86 ± 0.26 | 0.914 ± 0.24 | 0.99 ± 0.23 | 0.922 ± 0.085 | 1.02 ± 0.17 | 1.16 ± 0.073 |  |  | 
CN1CC(=O)N2[C@H](c3ccc4c(c3)OCO4)c3[nH]c4ccccc4c3C[C@@H]2C1=O [Tadalafil] | 1.33 ± 0.12 | 1.31 ± 0.17 | 1.53 ± 0.14 | 1.02 ± 0.079 | 1.28 ± 0.11 | 1.34 ± 0.091 | 0.582 ± 0.13 |  | 0.819 ± 0.13 | 1.17 ± 0.14 | 1.36 ± 0.31 | 1.42 ± 0.16 | 0.768 ± 0.047 | 1.04 ± 0.22 |  | 0.834 ± 0.28 | 
